# Laboratory results taken from the supplement of paper PMC10338343.
# ± gives the standard deviation. Only a part is listed here, and it is no random draw. Many of these values have a large error.
# Test system: MIWI (PIWIL1) piRISC loaded with piRNA #1 (30 nt)
# Experiment: pre-steady-state target cleavage rate (min^-1); MIWI and MILI are mouse PIWI proteins and EfPiwi is from a freshwater sponge; tags in brackets are library labels; higher = faster piRNA-guided slicing of the target
# Conditions: guide: piRNA #1 5'p-UGAGGUAGUAGGUUGUAUAGUAUCCAGAGG; auxiliary factor: 500 nM mouse GTSF1
# Outline: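 For Cleave-'n-Seq, a transcribed, DNA-blocked target RNA library […] met 1 nM active affinity-purified piRISC with one synthetic guide at 33 °C for 0–8 or 0–960 min in HEPES–potassium acetate buffer, with or without 500 nM GTSF1 partner protein. Uncleaved targets were sequenced and normalised to depth and weakly complementary targets, with three trials pooled and k3 capped at 0.0001 min^-1. A burst-and-steady-state fit supplied the pre-steady-state cleavage rate.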
# 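Further: 1 nM active piRISC with 0.1 nM target library at 33 °C single turnover.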
row,Sequence,pre-steady-state target cleavage rate
1,GGAGUGCAUACUAUACAACCUACUACGUCA,0.629 ± 0.053
2,CCUCUCGAUACUAUACAACCUACUACCUCA,2.01 ± 0.12
3,GGUCUCGAUACAAUACAACCUACUACCUCA,1.77 ± 0.12
4,GGAGAGGAUACUAUACAACCCUACUACCUCA,0.000778 ± 0.0071
5,GCUCUCGAUACUAUACAACCUUCUACCUCA,0.639 ± 0.034
6,GGAGACCUAUGAUAACAAGCUACUUCCUCA,0.00013 ± 0.026
7,GGAGACCUAUGAUAUCAACCUAUCUACCUCA,0.000356 ± 0.0071
8,GGACUGGAUACUUUACAACCUACUUCCUCA,0.00278 ± 0.0028
9,GGAGACCUAUGAUAUGUUCGUUCUACCUCA,0.000208 ± 0.019
10,GCUCUGGUUACUAUUCAACCUACUACCUCA,1.88 ± 0.12
11,GGAGACCUAUGAAUACAACCUACUACCGUCA,0.00189 ± 0.0032
12,GCUCUCGAUACUUUACAACCUACUACCUCA,1.69 ± 0.11
13,GGAGACCUAUGAUUACAACCUACUGACCUCA,0.00135 ± 0.0045
14,GGAGACCUAUGAUUACAACCUACUACCUUCA,0.000977 ± 0.004
15,GGACUGGAUACUAUACAACUCUACUACCUCA,0.000241 ± 0.036
16,GGAGACCUAACUAUACAACAUACUACCUCA,0.303 ± 0.036
17,GGAGACCUAUGAUAUGUUGGUACUACGAGA,0.000307 ± 0.024
18,CCUCUGGAAACUAUUCAACCUACUACCUCA,2.02 ± 0.13
19,CCUCUGGAUACUAAACAACCUACUACGUCA,1.49 ± 0.087
20,GGAGACCUAUGAUAUGUUGGUACUACCUGCA,0.000355 ± 0.013
21,GGACUGGAUACUAUACAACCUACUAGGUCA,0.000363 ± 0.0092
22,GGAGACCUAUGAAUGCAACCUACUACCUCA,0.000803 ± 0.0049
23,CCUCUGGAUACUAUACAACCUACUACCUCC [g2:g30:cont:t1C],2.18 ± 0.14
24,GCUCUCGAUACUAUUCAACCUACUACCUCA,1.86 ± 0.11

# Rewritten with bars between the fields: part of the list above
row | Sequence | pre-steady-state target cleavage rate
14 | GGAGACCUAUGAUUACAACCUACUACCUUCA | 0.000977 ± 0.004
18 | CCUCUGGAAACUAUUCAACCUACUACCUCA | 2.02 ± 0.13
